Patent US20060275316A1
No constants are given. Whether binding was seen depends on the method and setting. Some entries that bind do so weakly or less than the wild type.

Legend:
[1] = target: T1, CXCR4 on CEM X4/R5 cells (a human T cell line expressing CXCR4 and CCR5) (human), P61073; assay: competition with 125I-SDF-1 on CEM X4/R5 cells at 37 C and 4 C, gamma counting; settings: remark: other sources report otherwise
T1 chain: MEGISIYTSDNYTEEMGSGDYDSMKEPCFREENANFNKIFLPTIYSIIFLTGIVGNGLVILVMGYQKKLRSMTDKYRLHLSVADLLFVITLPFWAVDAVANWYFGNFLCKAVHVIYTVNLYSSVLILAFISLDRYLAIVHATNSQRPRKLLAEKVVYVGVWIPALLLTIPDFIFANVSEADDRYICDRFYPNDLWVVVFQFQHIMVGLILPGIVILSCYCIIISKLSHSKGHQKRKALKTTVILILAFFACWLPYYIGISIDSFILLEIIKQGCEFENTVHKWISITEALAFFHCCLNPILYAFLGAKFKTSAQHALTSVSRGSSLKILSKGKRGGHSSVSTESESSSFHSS

[2] = target: T1, CXCR4 on CEM X4/R5 cells (a human T …); assay: competition with 125I-SDF-1 on CEM X4/R5 cells, gamma counting (figure legend); settings: remark: other sources report otherwise

- binding [1]: binds
- binding [2]: binds
B1: recombinant human beta defensin-3 (rhBD-3), P81534 23-67 (peptide, UniProt P81534 23-67, looked up)
chain: GIINTLQKYYCRVRGGRCAVLSCLPKEEQIGKCSTRGRKCCRRKK
